Some of these results come from one statement about several compounds together.
System: biotin-(PEG)4-(GR)10
Test: Digestion of biotin-(PEG)4-(GR)10 by immobilized proteases
Type: biochemical
Settings: 200 μM in PBS, after 5 minutes of incubation, FIG. 9

B1: Commercial Trypsin: commercial immobilized trypsin, presumably the ThermoFisher immobilized TPCK-trypsin of Example 2 (protein, UniProt P00760 24-246, looked up)
Serine protease 1: IVGGYTCGANTVPYQVSLNSGYHFCGGSLINSQWVVSAAHCYKSGIQVRLGEDNINVVEGNEQFISASKSIVHPSYNSNTLNNDIMLIKLKSAASLNSRVASISLPTSCASAGTQCLISGWGNTKSSGTSYPDVLKCLKAPILSDSSCKSAYPGQITSNMFCAGYLEGGKDSCQGDSGGPVVCSGKLQGIVSWGSGCAQKNKPGVYTKVCNYVSWIKQTIASN
modifications: TPCK-treated, immobilized on agarose resin
Digestion of biotin-(PEG)4-(GR)10: over 90%

Source: US11419921B2, “Methods of treating neurological disorders” (EnClear Therapies, Inc., priority 2018, dated 2022)
